Where a name gives a salt, the structure may show the parent alone. This is one part of the list. The calls rarely recur for the same compound in another form.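 Kinases, fused to nanoluciferase, were expressed in K562 cells; luminescence was measured every 4 h from 2 to 18 h as percent of control (DMSO = 100%, positive control = 0%). A time point is decreased if signal falls significantly (2 sigma). Hits were called by the authors by a rule that is not shown; the count of time points alone does not decide it.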
Legend:
Assay in all cases: kinase-Nluc reporter destabilization hit call (1 = scored as downregulated) (binary); higher = compound decreases kinase abundance
Settings in all cases: K562; 2-18 h
RET = RET (UniProt P07949)
[1] = molecular target: RET_M918T (clone: RET_mut) (UniProt P07949)
RIOK1 = RIOK1 (UniProt Q9BRS2)
RIPK1 = RIPK1 (UniProt Q13546)
RIPK2 = RIPK2 (UniProt O43353)
ROR2 = ROR2 (UniProt Q01974)
RPS6KA1 = RPS6KA1 (UniProt Q15418)
SPHK1 = SPHK1 (UniProt Q9NYA1)
SRC = SRC (UniProt P12931)
STK24 = STK24 (UniProt Q9Y6E0)

Chains of the proteins cited; added tags and fusions are not shown. Lines headed by an entry give the natural chain unless they say otherwise; changes in a name come on top.
UniProt P07949, whole entry, looked up: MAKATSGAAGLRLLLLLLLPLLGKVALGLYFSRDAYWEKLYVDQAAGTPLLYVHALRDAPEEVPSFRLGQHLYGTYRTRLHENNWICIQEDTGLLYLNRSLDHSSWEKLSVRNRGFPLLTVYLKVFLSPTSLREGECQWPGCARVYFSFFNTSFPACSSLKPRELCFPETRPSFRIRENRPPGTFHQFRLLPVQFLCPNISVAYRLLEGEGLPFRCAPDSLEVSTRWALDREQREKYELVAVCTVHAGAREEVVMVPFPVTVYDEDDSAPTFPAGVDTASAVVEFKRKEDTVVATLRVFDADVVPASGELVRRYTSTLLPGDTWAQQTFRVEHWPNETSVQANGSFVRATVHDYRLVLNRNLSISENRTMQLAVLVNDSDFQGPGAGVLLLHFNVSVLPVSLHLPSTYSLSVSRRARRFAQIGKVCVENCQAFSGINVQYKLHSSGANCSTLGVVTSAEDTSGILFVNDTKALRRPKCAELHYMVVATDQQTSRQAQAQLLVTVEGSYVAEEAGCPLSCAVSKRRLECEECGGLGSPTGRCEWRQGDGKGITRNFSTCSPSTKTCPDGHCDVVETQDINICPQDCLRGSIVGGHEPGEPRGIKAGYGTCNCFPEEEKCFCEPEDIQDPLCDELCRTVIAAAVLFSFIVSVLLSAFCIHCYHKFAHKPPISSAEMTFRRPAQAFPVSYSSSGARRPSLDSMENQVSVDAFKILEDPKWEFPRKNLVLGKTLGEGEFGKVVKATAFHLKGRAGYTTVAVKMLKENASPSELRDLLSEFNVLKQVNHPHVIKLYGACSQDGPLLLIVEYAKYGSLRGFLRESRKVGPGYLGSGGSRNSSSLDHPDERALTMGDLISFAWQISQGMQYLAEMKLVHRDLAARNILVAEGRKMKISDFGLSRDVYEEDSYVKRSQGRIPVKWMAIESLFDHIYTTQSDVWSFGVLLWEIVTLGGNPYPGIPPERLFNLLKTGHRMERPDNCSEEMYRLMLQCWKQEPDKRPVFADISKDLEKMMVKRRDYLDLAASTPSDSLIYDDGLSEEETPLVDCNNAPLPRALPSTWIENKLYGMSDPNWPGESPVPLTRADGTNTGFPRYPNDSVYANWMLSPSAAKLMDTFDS
UniProt P07949, whole entry M918T, looked up: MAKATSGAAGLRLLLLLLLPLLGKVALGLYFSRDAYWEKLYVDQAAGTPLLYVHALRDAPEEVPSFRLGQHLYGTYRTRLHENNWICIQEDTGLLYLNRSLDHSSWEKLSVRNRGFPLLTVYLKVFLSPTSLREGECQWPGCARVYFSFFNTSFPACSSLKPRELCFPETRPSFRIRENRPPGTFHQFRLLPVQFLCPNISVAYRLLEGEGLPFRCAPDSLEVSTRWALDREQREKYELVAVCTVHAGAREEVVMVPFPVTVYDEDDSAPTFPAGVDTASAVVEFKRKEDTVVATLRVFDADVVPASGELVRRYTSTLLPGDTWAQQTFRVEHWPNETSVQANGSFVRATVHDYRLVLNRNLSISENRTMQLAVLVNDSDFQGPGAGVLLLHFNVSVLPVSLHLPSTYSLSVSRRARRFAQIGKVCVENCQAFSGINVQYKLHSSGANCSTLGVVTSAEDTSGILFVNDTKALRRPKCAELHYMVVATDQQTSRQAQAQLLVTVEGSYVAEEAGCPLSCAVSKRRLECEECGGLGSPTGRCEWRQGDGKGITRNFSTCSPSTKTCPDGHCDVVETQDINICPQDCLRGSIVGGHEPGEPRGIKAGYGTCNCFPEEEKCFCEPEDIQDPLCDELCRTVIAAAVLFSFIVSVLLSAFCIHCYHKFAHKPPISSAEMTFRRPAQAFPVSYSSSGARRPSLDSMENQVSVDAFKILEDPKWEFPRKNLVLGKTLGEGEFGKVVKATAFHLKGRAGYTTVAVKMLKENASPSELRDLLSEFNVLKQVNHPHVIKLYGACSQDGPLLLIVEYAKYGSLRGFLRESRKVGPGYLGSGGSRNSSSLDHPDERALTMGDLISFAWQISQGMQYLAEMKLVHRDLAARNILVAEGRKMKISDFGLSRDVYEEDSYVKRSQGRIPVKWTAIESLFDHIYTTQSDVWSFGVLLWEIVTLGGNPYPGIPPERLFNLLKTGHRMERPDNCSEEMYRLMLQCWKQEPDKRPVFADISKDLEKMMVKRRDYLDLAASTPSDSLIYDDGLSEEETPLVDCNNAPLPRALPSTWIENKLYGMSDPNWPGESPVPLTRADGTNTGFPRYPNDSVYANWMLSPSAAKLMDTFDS
UniProt Q9BRS2: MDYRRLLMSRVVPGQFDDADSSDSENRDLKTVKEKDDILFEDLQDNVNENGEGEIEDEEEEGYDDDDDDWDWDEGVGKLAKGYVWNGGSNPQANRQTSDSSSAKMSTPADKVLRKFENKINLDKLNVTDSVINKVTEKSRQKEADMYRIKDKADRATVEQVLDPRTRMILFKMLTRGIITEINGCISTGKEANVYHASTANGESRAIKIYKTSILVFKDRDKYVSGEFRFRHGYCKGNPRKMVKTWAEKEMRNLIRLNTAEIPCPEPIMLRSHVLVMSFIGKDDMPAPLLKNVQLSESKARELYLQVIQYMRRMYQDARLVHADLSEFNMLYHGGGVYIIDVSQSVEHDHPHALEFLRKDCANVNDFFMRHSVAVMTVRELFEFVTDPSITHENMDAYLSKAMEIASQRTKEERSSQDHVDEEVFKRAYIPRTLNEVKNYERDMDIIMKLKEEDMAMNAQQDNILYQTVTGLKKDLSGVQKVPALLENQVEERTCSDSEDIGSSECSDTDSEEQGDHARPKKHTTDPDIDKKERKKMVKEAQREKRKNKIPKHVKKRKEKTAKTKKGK
UniProt Q13546: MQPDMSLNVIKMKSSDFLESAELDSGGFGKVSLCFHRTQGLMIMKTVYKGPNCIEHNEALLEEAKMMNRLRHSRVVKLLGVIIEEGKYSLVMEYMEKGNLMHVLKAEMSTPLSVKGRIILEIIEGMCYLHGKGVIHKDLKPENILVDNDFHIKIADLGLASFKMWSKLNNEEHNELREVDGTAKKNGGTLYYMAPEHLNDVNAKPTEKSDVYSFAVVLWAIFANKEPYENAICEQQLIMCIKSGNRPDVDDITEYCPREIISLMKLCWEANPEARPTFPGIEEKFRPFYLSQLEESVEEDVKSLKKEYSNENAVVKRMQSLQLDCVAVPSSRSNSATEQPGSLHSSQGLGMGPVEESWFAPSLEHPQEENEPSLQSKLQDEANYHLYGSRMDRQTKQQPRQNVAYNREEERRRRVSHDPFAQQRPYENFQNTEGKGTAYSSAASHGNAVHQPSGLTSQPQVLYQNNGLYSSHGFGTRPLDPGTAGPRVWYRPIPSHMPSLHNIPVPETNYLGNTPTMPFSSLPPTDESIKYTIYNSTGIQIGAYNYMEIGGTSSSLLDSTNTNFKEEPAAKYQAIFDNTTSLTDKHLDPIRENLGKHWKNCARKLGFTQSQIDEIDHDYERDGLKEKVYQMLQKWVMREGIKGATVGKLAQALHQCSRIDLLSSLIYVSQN
UniProt Q01974, whole entry: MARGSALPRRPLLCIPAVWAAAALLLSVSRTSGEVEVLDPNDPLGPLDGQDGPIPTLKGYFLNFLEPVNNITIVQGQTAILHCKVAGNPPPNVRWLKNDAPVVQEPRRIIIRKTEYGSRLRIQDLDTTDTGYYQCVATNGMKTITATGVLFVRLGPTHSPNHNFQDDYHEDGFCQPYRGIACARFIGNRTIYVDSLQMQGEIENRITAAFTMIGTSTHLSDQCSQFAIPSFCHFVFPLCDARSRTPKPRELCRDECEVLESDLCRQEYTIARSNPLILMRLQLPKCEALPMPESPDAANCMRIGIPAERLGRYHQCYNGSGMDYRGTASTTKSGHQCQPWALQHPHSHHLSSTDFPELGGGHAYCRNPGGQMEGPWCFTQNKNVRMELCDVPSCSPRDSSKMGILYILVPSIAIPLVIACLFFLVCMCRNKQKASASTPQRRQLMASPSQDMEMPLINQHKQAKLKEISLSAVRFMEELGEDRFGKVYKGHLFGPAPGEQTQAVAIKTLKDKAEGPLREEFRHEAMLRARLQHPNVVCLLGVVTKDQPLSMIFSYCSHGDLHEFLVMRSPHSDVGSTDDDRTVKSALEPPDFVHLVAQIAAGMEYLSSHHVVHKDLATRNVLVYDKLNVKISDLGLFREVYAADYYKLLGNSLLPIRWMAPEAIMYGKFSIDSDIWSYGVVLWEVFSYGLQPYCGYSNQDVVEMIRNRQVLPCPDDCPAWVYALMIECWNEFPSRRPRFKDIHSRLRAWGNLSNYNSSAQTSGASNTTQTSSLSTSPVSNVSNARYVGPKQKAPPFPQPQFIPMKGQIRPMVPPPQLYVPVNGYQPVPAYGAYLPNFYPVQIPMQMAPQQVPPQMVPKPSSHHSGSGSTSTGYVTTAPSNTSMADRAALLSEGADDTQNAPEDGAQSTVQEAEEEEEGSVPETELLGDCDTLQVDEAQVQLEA
UniProt Q15418, whole entry: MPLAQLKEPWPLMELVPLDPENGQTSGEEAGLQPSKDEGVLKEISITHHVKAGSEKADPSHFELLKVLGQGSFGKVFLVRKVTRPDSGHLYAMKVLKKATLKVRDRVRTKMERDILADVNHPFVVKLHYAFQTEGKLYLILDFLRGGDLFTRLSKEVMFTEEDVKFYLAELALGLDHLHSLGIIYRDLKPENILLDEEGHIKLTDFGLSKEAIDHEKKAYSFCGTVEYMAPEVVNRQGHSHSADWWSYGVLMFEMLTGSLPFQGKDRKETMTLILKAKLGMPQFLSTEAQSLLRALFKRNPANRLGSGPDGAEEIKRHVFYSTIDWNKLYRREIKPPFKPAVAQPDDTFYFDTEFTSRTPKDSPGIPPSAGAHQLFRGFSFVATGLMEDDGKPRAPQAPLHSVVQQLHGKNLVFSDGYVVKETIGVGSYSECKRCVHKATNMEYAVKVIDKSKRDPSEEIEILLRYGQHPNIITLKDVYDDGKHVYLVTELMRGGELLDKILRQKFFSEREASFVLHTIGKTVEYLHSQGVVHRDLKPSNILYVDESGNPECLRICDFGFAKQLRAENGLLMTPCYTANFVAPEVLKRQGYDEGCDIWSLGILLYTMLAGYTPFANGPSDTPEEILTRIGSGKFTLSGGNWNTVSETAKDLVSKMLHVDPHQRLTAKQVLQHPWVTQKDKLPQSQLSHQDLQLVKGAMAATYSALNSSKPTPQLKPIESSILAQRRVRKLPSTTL
UniProt Q9NYA1, whole entry: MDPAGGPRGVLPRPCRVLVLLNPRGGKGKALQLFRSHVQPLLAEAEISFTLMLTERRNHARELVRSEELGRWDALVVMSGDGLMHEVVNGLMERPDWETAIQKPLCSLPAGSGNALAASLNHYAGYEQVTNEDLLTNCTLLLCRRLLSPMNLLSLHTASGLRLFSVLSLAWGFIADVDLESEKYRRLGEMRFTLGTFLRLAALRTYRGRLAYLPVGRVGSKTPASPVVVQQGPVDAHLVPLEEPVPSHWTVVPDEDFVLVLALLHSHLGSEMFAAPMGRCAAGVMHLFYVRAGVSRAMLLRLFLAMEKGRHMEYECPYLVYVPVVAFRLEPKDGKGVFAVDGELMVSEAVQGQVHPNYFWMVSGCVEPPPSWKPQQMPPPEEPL
UniProt Q9Y6E0: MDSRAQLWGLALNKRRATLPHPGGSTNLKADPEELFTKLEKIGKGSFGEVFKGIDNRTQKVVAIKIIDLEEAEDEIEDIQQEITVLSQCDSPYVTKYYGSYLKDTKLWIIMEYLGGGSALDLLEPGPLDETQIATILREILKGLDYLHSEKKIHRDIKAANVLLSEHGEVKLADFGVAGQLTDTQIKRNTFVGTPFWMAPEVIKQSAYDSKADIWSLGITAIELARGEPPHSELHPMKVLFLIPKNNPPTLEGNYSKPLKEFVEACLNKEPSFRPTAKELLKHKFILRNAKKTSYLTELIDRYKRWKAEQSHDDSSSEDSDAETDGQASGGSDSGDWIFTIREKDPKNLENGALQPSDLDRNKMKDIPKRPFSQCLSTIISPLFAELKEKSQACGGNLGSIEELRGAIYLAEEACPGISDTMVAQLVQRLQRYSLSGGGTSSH

Compound | kinase-Nluc reporter destabilization hit call (RET) | kinase-Nluc reporter destabilization hit call [1] | kinase-Nluc reporter destabilization hit call (RIOK1) | kinase-Nluc reporter destabilization hit call (RIPK1) | kinase-Nluc reporter destabilization hit call (RIPK2) | kinase-Nluc reporter destabilization hit call (ROR2) | kinase-Nluc reporter destabilization hit call (RPS6KA1) | kinase-Nluc reporter destabilization hit call (SPHK1) | kinase-Nluc reporter destabilization hit call (SRC) | kinase-Nluc reporter destabilization hit call (STK24)
O=C(COc1ccc(Cl)cc1)NC1CCC(NC(=O)COc2ccc(Cl)cc2)CC1 (stereo not drawn) [ISRIB (trans-isomer)] (10 µM) | inactive: 0 | inactive: 0 | inactive: 0 | inactive: 0 | inactive: 0 | inactive: 0 | inactive: 0 | inactive: 0 | inactive: 0 | inactive: 0
Cc1cc(N2CCOCC2)ccc1Nc1nc(NC2CCCCC2)c2[nH]cnc2n1 (10 µM) | inactive: 0 | inactive: 0 | inactive: 0 | inactive: 0 | inactive: 0 | inactive: 0 | inactive: 0 | inactive: 0 | inactive: 0 | inactive: 0
CCOC(=O)c1c(Nc2ccccc2Cl)oc(/C=C2\C=Nc3ncccc32)c1O (10 µM) | inactive: 0 | inactive: 0 | inactive: 0 | inactive: 0 | inactive: 0 | inactive: 0 | inactive: 0 | inactive: 0 | inactive: 0 | inactive: 0
O=[N+]([O-])c1ccc(-c2nc(-c3ccc(F)cc3)c(-c3ccncc3)[nH]2)cc1 (10 µM) | inactive: 0 | inactive: 0 | inactive: 0 | inactive: 0 | inactive: 0 | inactive: 0 | inactive: 0 | active: 1 | inactive: 0 | inactive: 0
NCCNS(=O)(=O)c1ccc(Cl)c2ccncc12 [CKI-7 (free base)] (10 µM) | inactive: 0 | inactive: 0 | inactive: 0 | inactive: 0 | inactive: 0 | inactive: 0 | inactive: 0 | inactive: 0 | inactive: 0 | inactive: 0
CC(C)=CCC[C@](C)(O[C@@H]1O[C@H](CO[C@@H]2O[C@H](CO)[C@@H](O)[C@H](O)[C@H]2O)[C@@H](O)[C@H](O)[C@H]1O)[C@H]1CC[C@]2(C)[C@@H]1[C@H](O)C[C@@H]1[C@@]3(C)CC[C@H](O[C@@H]4O[C@H](CO)[C@@H](O)[C@H](O)[C@H]4O[C@@H]4O[C@H](CO)[C@@H](O)[C@H](O)[C@H]4O)C(C)(C)[C@@H]3CC[C@]12C [Ginsenoside Rb1] (10 µM) | inactive: 0 | inactive: 0 | inactive: 0 | inactive: 0 | inactive: 0 | inactive: 0 | inactive: 0 | inactive: 0 | inactive: 0 | inactive: 0
O=C1Cc2ccccc2N1 [Oxindole] (10 µM) | inactive: 0 | inactive: 0 | inactive: 0 | inactive: 0 | inactive: 0 | inactive: 0 | inactive: 0 | inactive: 0 | inactive: 0 | inactive: 0
COc1c(Nc2ncc(Cl)c(N[C@H]3[C@@H](C(N)=O)[C@@H]4C=C[C@H]3C4)n2)ccc2c1CC[C@@H](N1CCOCC1)CC2 (10 µM) | inactive: 0 | inactive: 0 | inactive: 0 | inactive: 0 | inactive: 0 | inactive: 0 | inactive: 0 | inactive: 0 | inactive: 0 | inactive: 0
Nc1nccc(Oc2ccc3c(C(=O)Nc4cccc(C(F)(F)F)c4)cccc3c2)n1 (10 µM) | inactive: 0 | inactive: 0 | inactive: 0 | inactive: 0 | inactive: 0 | inactive: 0 | inactive: 0 | inactive: 0 | inactive: 0 | inactive: 0
O=C1C=CC2=C3c4cc(O)c(O)cc4CC3(O)COC2=C1O (stereo not given) [Hematein] (10 µM) | inactive: 0 | inactive: 0 | inactive: 0 | inactive: 0 | inactive: 0 | inactive: 0 | inactive: 0 | inactive: 0 | inactive: 0 | inactive: 0
COc1ccc(-c2cc(=O)c3c(O)cc(O)cc3o2)cc1-c1c(O)cc(O)c2c(=O)cc(-c3ccc(O)cc3)oc12 [Bilobetin] (2.5 µM) | inactive: 0 | inactive: 0 | inactive: 0 | inactive: 0 | inactive: 0 | inactive: 0 | inactive: 0 | inactive: 0 | inactive: 0 | inactive: 0
C=CC(=O)Nc1cccc(Oc2nc(Nc3ccc(N4CCN(C)CC4)cc3OC)ncc2Cl)c1 (10 µM) | inactive: 0 | inactive: 0 | inactive: 0 | inactive: 0 | inactive: 0 | inactive: 0 | inactive: 0 | inactive: 0 | inactive: 0 | inactive: 0
CCOc1cc(N2CCC(O)CC2)ccc1Nc1ncc2c(n1)N(C1CCCC1)CCC(=O)N2C (2.5 µM) | inactive: 0 | inactive: 0 | inactive: 0 | inactive: 0 | inactive: 0 | inactive: 0 | inactive: 0 | inactive: 0 | inactive: 0 | inactive: 0
COc1ccc(CN2CCC(c3ccc4nc(C(=O)N5CCN(Cc6ccc(C(F)(F)F)cc6)CC5)[nH]c4c3)CC2)cn1 (2.5 µM) | inactive: 0 | inactive: 0 | inactive: 0 | inactive: 0 | inactive: 0 | inactive: 0 | inactive: 0 | inactive: 0 | inactive: 0 | inactive: 0
CC1(C)CN(C(=O)c2ccc(-c3cccc4nc(NC(=O)C5CC5)nn34)cc2)C1 [Solcitinib] (10 µM) | inactive: 0 | inactive: 0 | inactive: 0 | inactive: 0 | inactive: 0 | inactive: 0 | inactive: 0 | inactive: 0 | inactive: 0 | inactive: 0
Cc1cnc(Cl)nc1-c1ccc(N(Cc2ccc(CNC(=O)C(F)F)cc2)C(=O)c2ccc(O)cc2O)cc1 (10 µM) | inactive: 0 | inactive: 0 | inactive: 0 | inactive: 0 | inactive: 0 | inactive: 0 | inactive: 0 | inactive: 0 | inactive: 0 | inactive: 0
O=C(C#Cc1ccccc1)c1cccc([N+](=O)[O-])c1 (10 µM) | inactive: 0 | inactive: 0 | inactive: 0 | inactive: 0 | inactive: 0 | inactive: 0 | inactive: 0 | inactive: 0 | inactive: 0 | inactive: 0
O=C(O)c1c[nH]c2cc(Cl)c(-c3ccc(C4(O)CCC4)cc3)cc12 (10 µM) | inactive: 0 | inactive: 0 | inactive: 0 | inactive: 0 | inactive: 0 | inactive: 0 | inactive: 0 | inactive: 0 | inactive: 0 | inactive: 0
CNCc1ccccc1Sc1cccc2ccccc12 [IFN alpha-IFNAR-IN-1 (hydrochloride)] (10 µM) | inactive: 0 | inactive: 0 | inactive: 0 | inactive: 0 | inactive: 0 | inactive: 0 | inactive: 0 | inactive: 0 | inactive: 0 | inactive: 0
CC1=CC(=O)C(C(C)C)=C/C1=N/OC(=O)c1ccccc1C [Poloxin] (2.5 µM) | inactive: 0 | inactive: 0 | inactive: 0 | inactive: 0 | inactive: 0 | inactive: 0 | inactive: 0 | inactive: 0 | inactive: 0 | inactive: 0
O=C1CCC(N2C(=O)c3cccc(OCCCCCOc4ccc(CC(=O)Nc5cc(C6CCC6)[nH]n5)cc4)c3C2=O)C(=O)N1 (stereo not given) [PROTAC CDK9 Degrader-1] (10 µM) | inactive: 0 | inactive: 0 | inactive: 0 | inactive: 0 | inactive: 0 | inactive: 0 | inactive: 0 | inactive: 0 | inactive: 0 | inactive: 0
Nc1ccc(-c2nc3ccc(-c4nc5ccc(N)cc5[nH]4)cc3[nH]2)cc1 (10 µM) | inactive: 0 | inactive: 0 | inactive: 0 | inactive: 0 | inactive: 0 | inactive: 0 | inactive: 0 | inactive: 0 | inactive: 0 | inactive: 0
CS(=O)(=O)c1ccc([C@@H](CC2CCCC2)C(=O)Nc2nccs2)cc1 (10 µM) | inactive: 0 | inactive: 0 | inactive: 0 | inactive: 0 | inactive: 0 | inactive: 0 | inactive: 0 | inactive: 0 | inactive: 0 | inactive: 0
COC(=O)N1CCN(C2CCC(Nc3nc(Nc4cnn(C)c4)nc4ccc(CC#N)nc34)CC2)CC1 (stereo not given) (10 µM) | inactive: 0 | inactive: 0 | inactive: 0 | inactive: 0 | inactive: 0 | inactive: 0 | inactive: 0 | inactive: 0 | inactive: 0 | inactive: 0
CC(C)n1c(CO)nc2c(F)cc(-c3nc(Nc4ccc(CN5CCNCC5)cn4)ncc3F)cc21 (10 µM) | inactive: 0 | inactive: 0 | inactive: 0 | inactive: 0 | inactive: 0 | inactive: 0 | inactive: 0 | inactive: 0 | inactive: 0 | inactive: 0
COc1cc2c(cc1OC)[C@@H]1C(=O)c3ccc4c(c3O[C@@H]1CO2)C=CC(C)(C)O4 [Deguelin] (10 µM) | inactive: 0 | inactive: 0 | inactive: 0 | inactive: 0 | inactive: 0 | inactive: 0 | inactive: 0 | inactive: 0 | inactive: 0 | inactive: 0
CCC[C@H](C)Oc1nc(N)c2[nH]c(=O)n(CCCCCN3CCCCC3)c2n1 (10 µM) | inactive: 0 | inactive: 0 | inactive: 0 | inactive: 0 | inactive: 0 | inactive: 0 | inactive: 0 | inactive: 0 | inactive: 0 | inactive: 0
CCCS(=O)(=O)N[C@H]1C[C@@H](N(C)c2ncnc3[nH]ccc23)C1 [Abrocitinib] (10 µM) | inactive: 0 | inactive: 0 | inactive: 0 | inactive: 0 | inactive: 0 | inactive: 0 | inactive: 0 | inactive: 0 | inactive: 0 | inactive: 0
Cc1cccc(-c2nn3c(c2-c2ccnc4ccc(C(N)=O)cc24)CCC3)n1 [Galunisertib] (10 µM) | inactive: 0 | inactive: 0 | inactive: 0 | inactive: 0 | inactive: 0 | inactive: 0 | inactive: 0 | inactive: 0 | inactive: 0 | inactive: 0

2 records drawn at random from the list so far, as already listed:
Compound | kinase-Nluc reporter destabilization hit call (RET) | kinase-Nluc reporter destabilization hit call [1] | kinase-Nluc reporter destabilization hit call (RIOK1) | kinase-Nluc reporter destabilization hit call (RIPK1) | kinase-Nluc reporter destabilization hit call (RIPK2) | kinase-Nluc reporter destabilization hit call (ROR2) | kinase-Nluc reporter destabilization hit call (RPS6KA1) | kinase-Nluc reporter destabilization hit call (SPHK1) | kinase-Nluc reporter destabilization hit call (SRC) | kinase-Nluc reporter destabilization hit call (STK24)
Nc1ccc(-c2nc3ccc(-c4nc5ccc(N)cc5[nH]4)cc3[nH]2)cc1 (10 µM) | inactive: 0 | inactive: 0 | inactive: 0 | inactive: 0 | inactive: 0 | inactive: 0 | inactive: 0 | inactive: 0 | inactive: 0 | inactive: 0
O=C(O)c1c[nH]c2cc(Cl)c(-c3ccc(C4(O)CCC4)cc3)cc12 (10 µM) | inactive: 0 | inactive: 0 | inactive: 0 | inactive: 0 | inactive: 0 | inactive: 0 | inactive: 0 | inactive: 0 | inactive: 0 | inactive: 0
